Experimental data reported in the supplement of paper PMC3334620.
Whole data set: some 33,000 sequences, median “E-score (-0.5 to 0.5)” near -8e-05, cut for the highest 2% near 0.23. The list shows a part of the results.

The sequences below were run against T1, Nrg2 (UniProt P38082) (assay: PBM E-score (8-mer binding enrichment) (E-score (-0.5 to 0.5)); higher = stronger / more preferred TF binding). Conditions: protein concentration: 100 nM; construct: GST-full length.
T1 sequence: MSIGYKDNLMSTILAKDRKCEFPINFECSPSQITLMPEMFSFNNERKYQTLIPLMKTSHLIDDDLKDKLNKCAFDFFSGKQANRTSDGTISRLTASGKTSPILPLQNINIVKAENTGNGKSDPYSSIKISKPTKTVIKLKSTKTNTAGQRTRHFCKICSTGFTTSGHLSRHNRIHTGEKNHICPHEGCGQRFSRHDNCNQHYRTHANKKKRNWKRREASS
Outline: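 Yeast transcription factors, full-length or as DNA-binding domains, were expressed with a GST tag using PURExpress in vitro transcription/translation. At about 100-200 nM they were applied to universal all-10-mer Agilent arrays, double-stranded by primer extension on fresh or once-stripped slides. Fluorescent anti-GST detected bound protein, and masliner normalised the scans. E-scores for ungapped eight-base words, pooled with reverse complements, came from the Universal PBM Analysis Suite.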

Row | Sequence | PBM E-score
1 | AAACTTCA | 0.0984
2 | ACATAAGT | 0.118
3 | GATTAAGC | 0.0306
4 | CAAATCTG | -0.0086
5 | AATTTAGC | 0.14
6 | ACGGCGAT | 0.0361
7 | AAAGTTCT | -0.0562
8 | ACGCGACG | 0.061
9 | CACTACAA | 0.129
10 | CGACCTAA | 0.167
11 | CGAGTCTC | -0.294
12 | GTTTATAA | 0.109
13 | CATAGTCA | 0.0096
14 | CCTGCAGG | 0.174
15 | CAAGATTG | -0.0678
16 | ACCCGTGC | 0.0186
17 | CACCCCTC | -0.0399
18 | ATAACTAC | 0.119
19 | AGAAGAGG | -0.209
20 | ATCGGTTA | 0.141
21 | GCCACCGC | -0.13
22 | GAAGAAAA | -0.113
23 | CTTTATTC | 0.0506
24 | CCCTGGCC | 0.175
25 | CAGAACGA | -0.00647

Row | Sequence | PBM E-score
26 | CATAGGAC | -0.151
27 | AGATCGCC | -0.0109
28 | ATCCTAGC | 0.00403
29 | AGAAACCA | 0.0851
30 | GGGGAAAA | -0.00355
31 | CGGCTGCA | -0.137
32 | GTTCTACA | -0.131
33 | ACCTAAAC | -0.0716
34 | CCCATACA | -0.0125
35 | ATGCCTGG | -0.0955
36 | ACTTGCAT | 0.131
37 | GCTACGTA | -0.0345
38 | ACAGCGGG | -0.0296
39 | ATTGCAGC | 0.0702
40 | ACGTGAAC | -0.22
41 | ATTGTGGA | 0.0344
42 | CGTGGAAC | 0.0155
43 | CCATTCAG | -0.00296
44 | CAGATGCC | -0.203
45 | CGCGGGCC | 0.176
46 | GACGGGGA | -0.165
47 | ATGTAGTC | -0.0277
48 | GGTAACCA | -0.23
49 | CGGAGTAC | -0.122
50 | CACTACAG | 0.00921

Row | Sequence | PBM E-score
51 | TGATCCCA | 0.0527
52 | GCTTTGAA | 0.0162
53 | AAAAGCCA | 0.219
54 | CCCGTGAG | -0.00464
55 | TAGTACAA | -0.0144
56 | CCCGCAGG | -0.0245
57 | CTGATCAC | -0.0694
58 | AAGAACGA | 0.109
59 | CACTTCTA | -0.0512
60 | ACGTCAGG | -0.167
61 | TCGGTACA | -0.141
62 | CGCACTTA | 0.065
63 | AAAGGCTG | -0.244
64 | CATCGGGG | -0.115
65 | AGGTCCTA | -0.16
66 | GCTTGGTA | 0.0492
67 | CATGGTAC | 0.00349
68 | GGATGGGA | -0.135
69 | AAGGCACA | -0.0706
70 | ACGTCAAG | -0.194
71 | GGTCATAA | 0.0215
72 | GTGCTCAA | 0.0342
73 | CATCGAGG | 0.0813
74 | AGTGCCCC | -0.13
75 | CCTCCCCC | -0.401

Row | Sequence | PBM E-score
76 | CGCCATTC | 0.0972
77 | ATCATGAT | 0.0407
78 | ACGTGAAA | 0.139
79 | TAGGGTAA | 0.129
80 | ACCCACTA | 0.0322
81 | GGCGCGAC | 0.149
82 | AGAAAGTA | -0.0198
83 | AAATGCCA | 0.0141
84 | CCGTGCAC | -0.046
85 | AAGCGCAG | 0.0692
86 | ACGTGTAA | -0.0818
87 | AGGCGGGG | 0.0214
88 | CATTACCA | 0.0358
89 | ATCCTCCC | -0.213
90 | CAAGGACC | 0.109
91 | ACACTGTA | 0.0548
92 | CCTTACTA | -0.151
93 | TCCCAGAA | -0.142
94 | TCTCTCCA | -0.0135
95 | ATATTCGA | -0.0629
96 | ATTATTTA | 0.173
97 | AGCGTACC | -0.188
98 | TCGCCTCA | 0.0396
99 | GTATGCGA | 0.136
100 | CCCGAATC | -0.0566

Row | Sequence | PBM E-score
101 | GATGTTAA | 0.00349
102 | CTCCGTTA | -0.039
103 | AATCAATC | 0.205
104 | ACAGATAA | 0.0378
105 | ACCTATCC | -0.00287
106 | AATTAATG | 0.182
107 | CATGACTA | -0.0763
108 | CCTGTTCA | 0.103
109 | AAATTTTC | -0.0998
110 | CACTTAGC | -0.0931
111 | ACTTGTGG | -0.0601
112 | CAAGGAGC | -0.166
113 | CCCACAAG | -0.0136
114 | AAGGATCG | -0.055
115 | CGCGGAGA | 0.177
116 | CTGCTACA | -0.00452
117 | ATTCCTGA | -0.0367
118 | AAATGACA | 0.133
119 | TCGACTAA | 0.0293
120 | CCGTGTCA | -0.192
121 | CCCTGGGC | 0.12
122 | AGGTACTA | 0.0762
123 | CAAACTTC | 0.137
124 | TCGAGACA | 0.171
125 | CCCCCCCC | -0.458

Some of the entries so far, as comma-separated lines:
Row,Sequence,PBM E-score
101,GATGTTAA,0.00349
111,ACTTGTGG,-0.0601
115,CGCGGAGA,0.177
117,ATTCCTGA,-0.0367
118,AAATGACA,0.133
122,AGGTACTA,0.0762

(cont.)

Row | Sequence | PBM E-score
126 | CCGGGGCC | -0.204
127 | AAAACAGC | 0.0784
128 | ACGGAGTC | 0.00907
129 | AGTATCCG | 0.0491
130 | ATATCCGA | 0.235
131 | CACCCCCC | -0.5
132 | CCCCGGTA | -0.341
133 | TGTCGCAA | -0.0275
134 | AACCCTAG | 0.0468
135 | CACGGACC | 0.0501
136 | GTCCGATA | -0.13
137 | CCGTAGTC | -0.137
138 | GAGGACGC | -0.153
139 | GAGCTGGC | -0.097
140 | GAATGAGC | 0.0578
141 | AAACGACC | 0.148
142 | AAACCTCA | 0.17
143 | ATTGTGGC | 0.1
144 | ACACAGGA | -0.0296
145 | GCATGAGC | -0.00406
146 | CGTCCAGC | -0.148
147 | GCTCCAAA | -0.202
148 | AACGAGCA | -0.0566
149 | ATCCTATG | -0.0287
150 | ATCTCCGG | 0.0824

Given field by field: part of the list above.
ACATAAGT
  PBM E-score: 0.118
ACGGCGAT
  PBM E-score: 0.0361
CGCGGGCC
  PBM E-score: 0.176
TCTCTCCA
  PBM E-score: -0.0135

(cont.)

Row | Sequence | PBM E-score
151 | ATTAATAA | 0.217
152 | TGAGGGAA | 0.0135
153 | ATTTAAGG | -0.0617
154 | AATCATGG | 0.0273
155 | AGCAGGCC | -0.186
156 | AATAGTCA | 0.0674
157 | CTACGCTA | -0.104
158 | AACGTCTC | 0.0176
159 | GGAGGATA | -0.0422
160 | ATCTCGAA | 0.174
161 | ATTTCTGG | 0.0738
162 | CTGTGAGC | 0.101
163 | TACACGTA | 0.0289
164 | CCCTACAC | 0.0173
165 | CGTCATCA | -0.0517
166 | AATGAGGT | 0.0535
167 | CAACGCAC | 0.143
168 | ATAATAGC | -0.0441
169 | CTAGTCTC | -0.139
170 | AGTCTACA | -0.264
171 | CAACTGTG | 0.02
172 | AGGGGGCG | -0.162

Another view of some results above.
Row,Sequence,PBM E-score
166,AATGAGGT,0.0535
168,ATAATAGC,-0.0441
171,CAACTGTG,0.02
